Compound in this assay: [O-][N+](C(C1=C(C(O)=C2)NC(C(C=C3)=CC=C3Cl)C4C1C=CC4)=C2Cl)=O
Briefly: melting temperature shift (compound 7 minus DMSO); higher = compound stabilises the protein. The settings on record: 10 µM. Here is the method:
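Thermal proteome profiling (TMT mass spectrometry) in intact DAOY medulloblastoma cells or DAOY lysates treated with 10 µM compound 7 or DMSO, heated at 10 temperatures from 40.5 to 73.8 °C for 3 min. Melting curves were fitted with the Bioconductor TPP package, and the melting point difference between compound and vehicle is reported per protein (single curve per condition).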

Chains of the proteins cited; added tags and fusions are not shown. Lines headed by an entry give the natural chain unless they say otherwise; changes in a name come on top.
UniProt Q9NRK6: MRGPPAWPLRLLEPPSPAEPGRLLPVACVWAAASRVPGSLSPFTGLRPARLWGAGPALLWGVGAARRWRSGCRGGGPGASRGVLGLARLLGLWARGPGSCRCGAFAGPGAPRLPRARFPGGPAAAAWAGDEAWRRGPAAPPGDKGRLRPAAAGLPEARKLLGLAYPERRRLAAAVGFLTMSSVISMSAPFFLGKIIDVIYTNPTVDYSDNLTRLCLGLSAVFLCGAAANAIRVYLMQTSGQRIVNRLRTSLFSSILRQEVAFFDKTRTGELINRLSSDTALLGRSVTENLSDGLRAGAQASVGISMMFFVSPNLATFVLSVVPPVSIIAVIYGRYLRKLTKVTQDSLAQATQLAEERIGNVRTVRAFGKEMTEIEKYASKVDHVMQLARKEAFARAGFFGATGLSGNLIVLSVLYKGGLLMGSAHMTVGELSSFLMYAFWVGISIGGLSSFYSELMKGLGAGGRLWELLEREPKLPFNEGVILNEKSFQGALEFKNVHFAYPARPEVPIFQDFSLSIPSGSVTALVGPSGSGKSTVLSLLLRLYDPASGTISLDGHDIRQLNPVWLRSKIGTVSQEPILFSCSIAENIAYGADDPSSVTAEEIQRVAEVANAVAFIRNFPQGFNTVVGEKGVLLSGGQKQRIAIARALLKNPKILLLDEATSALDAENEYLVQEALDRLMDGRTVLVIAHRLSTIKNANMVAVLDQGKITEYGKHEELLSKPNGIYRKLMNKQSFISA
UniProt O95379: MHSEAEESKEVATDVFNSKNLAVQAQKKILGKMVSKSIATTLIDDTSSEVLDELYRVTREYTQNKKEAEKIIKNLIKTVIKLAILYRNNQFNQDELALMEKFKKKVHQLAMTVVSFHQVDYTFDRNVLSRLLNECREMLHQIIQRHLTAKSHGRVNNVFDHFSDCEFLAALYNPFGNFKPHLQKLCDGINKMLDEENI
UniProt O75608: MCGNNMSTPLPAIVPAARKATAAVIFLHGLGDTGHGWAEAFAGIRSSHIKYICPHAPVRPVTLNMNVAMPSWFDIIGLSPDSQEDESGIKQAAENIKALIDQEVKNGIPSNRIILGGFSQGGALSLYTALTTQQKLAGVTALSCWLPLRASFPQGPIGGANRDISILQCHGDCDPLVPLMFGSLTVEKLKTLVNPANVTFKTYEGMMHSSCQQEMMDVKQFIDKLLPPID
UniProt Q16773: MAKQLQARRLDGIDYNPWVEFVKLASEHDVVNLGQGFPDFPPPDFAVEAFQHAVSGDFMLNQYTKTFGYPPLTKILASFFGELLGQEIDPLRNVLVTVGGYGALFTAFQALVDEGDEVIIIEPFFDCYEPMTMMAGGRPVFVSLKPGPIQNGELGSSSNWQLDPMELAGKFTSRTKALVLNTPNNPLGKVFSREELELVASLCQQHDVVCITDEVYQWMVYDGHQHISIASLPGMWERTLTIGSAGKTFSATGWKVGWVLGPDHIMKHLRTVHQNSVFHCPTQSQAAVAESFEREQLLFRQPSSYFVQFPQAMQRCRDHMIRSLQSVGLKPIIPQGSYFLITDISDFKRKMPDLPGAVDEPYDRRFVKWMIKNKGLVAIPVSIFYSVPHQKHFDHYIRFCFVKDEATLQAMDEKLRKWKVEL
UniProt Q9BT23: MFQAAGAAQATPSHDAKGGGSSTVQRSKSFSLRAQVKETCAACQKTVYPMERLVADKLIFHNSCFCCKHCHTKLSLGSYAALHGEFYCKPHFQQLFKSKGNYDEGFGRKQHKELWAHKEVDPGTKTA
UniProt Q92540: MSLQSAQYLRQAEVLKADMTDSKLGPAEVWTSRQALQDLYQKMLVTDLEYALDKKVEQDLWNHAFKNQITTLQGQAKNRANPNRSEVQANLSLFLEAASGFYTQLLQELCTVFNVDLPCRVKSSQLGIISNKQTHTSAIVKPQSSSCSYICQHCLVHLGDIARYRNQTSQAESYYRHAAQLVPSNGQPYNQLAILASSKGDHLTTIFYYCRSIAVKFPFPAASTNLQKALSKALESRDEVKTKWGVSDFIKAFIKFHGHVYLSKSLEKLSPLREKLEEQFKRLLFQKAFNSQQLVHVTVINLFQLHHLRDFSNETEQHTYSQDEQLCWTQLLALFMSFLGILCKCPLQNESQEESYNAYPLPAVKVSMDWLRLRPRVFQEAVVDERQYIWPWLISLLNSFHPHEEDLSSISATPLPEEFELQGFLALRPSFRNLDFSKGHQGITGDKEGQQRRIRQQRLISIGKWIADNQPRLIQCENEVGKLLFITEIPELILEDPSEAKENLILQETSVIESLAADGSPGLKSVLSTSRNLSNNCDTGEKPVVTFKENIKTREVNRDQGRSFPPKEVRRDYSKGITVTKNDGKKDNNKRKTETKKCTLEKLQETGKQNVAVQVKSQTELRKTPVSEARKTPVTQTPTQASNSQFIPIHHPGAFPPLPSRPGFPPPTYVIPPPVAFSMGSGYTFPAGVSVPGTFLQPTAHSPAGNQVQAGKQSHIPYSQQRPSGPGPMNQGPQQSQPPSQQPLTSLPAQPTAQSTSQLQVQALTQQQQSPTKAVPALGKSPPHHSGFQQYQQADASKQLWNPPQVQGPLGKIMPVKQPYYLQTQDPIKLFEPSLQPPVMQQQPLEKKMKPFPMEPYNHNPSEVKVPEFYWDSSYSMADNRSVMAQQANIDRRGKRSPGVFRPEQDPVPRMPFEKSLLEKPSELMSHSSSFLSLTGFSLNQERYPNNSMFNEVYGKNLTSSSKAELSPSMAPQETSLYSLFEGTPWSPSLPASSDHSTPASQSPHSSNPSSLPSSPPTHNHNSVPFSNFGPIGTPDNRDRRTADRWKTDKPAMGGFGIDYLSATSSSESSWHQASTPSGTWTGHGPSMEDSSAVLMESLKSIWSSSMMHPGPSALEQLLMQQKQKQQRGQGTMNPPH
UniProt Q8N5L8: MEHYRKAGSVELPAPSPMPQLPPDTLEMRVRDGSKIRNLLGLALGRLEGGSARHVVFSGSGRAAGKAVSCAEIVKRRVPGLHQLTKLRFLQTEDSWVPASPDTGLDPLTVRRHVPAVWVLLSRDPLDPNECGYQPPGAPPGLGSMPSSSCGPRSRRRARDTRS
UniProt P11387: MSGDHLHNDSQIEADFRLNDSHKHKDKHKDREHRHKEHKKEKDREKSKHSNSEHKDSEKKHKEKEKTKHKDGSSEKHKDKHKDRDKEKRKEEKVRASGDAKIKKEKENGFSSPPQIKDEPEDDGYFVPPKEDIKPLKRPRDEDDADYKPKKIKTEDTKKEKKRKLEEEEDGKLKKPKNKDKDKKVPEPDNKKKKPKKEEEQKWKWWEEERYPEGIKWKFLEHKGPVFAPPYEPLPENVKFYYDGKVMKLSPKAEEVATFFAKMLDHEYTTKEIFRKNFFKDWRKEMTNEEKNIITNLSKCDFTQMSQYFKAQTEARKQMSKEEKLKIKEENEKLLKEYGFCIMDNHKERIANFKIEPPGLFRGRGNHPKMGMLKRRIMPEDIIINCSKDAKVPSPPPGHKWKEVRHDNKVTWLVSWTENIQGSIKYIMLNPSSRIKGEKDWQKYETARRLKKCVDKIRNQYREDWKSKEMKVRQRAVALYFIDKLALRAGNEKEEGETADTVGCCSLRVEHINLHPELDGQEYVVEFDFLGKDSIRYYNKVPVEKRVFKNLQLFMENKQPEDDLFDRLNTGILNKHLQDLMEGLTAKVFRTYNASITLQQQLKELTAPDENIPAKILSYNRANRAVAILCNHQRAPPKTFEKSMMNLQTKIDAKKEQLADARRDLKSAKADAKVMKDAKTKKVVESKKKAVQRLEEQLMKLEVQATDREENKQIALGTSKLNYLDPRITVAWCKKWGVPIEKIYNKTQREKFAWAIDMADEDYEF
UniProt Q99666, whole entry, looked up: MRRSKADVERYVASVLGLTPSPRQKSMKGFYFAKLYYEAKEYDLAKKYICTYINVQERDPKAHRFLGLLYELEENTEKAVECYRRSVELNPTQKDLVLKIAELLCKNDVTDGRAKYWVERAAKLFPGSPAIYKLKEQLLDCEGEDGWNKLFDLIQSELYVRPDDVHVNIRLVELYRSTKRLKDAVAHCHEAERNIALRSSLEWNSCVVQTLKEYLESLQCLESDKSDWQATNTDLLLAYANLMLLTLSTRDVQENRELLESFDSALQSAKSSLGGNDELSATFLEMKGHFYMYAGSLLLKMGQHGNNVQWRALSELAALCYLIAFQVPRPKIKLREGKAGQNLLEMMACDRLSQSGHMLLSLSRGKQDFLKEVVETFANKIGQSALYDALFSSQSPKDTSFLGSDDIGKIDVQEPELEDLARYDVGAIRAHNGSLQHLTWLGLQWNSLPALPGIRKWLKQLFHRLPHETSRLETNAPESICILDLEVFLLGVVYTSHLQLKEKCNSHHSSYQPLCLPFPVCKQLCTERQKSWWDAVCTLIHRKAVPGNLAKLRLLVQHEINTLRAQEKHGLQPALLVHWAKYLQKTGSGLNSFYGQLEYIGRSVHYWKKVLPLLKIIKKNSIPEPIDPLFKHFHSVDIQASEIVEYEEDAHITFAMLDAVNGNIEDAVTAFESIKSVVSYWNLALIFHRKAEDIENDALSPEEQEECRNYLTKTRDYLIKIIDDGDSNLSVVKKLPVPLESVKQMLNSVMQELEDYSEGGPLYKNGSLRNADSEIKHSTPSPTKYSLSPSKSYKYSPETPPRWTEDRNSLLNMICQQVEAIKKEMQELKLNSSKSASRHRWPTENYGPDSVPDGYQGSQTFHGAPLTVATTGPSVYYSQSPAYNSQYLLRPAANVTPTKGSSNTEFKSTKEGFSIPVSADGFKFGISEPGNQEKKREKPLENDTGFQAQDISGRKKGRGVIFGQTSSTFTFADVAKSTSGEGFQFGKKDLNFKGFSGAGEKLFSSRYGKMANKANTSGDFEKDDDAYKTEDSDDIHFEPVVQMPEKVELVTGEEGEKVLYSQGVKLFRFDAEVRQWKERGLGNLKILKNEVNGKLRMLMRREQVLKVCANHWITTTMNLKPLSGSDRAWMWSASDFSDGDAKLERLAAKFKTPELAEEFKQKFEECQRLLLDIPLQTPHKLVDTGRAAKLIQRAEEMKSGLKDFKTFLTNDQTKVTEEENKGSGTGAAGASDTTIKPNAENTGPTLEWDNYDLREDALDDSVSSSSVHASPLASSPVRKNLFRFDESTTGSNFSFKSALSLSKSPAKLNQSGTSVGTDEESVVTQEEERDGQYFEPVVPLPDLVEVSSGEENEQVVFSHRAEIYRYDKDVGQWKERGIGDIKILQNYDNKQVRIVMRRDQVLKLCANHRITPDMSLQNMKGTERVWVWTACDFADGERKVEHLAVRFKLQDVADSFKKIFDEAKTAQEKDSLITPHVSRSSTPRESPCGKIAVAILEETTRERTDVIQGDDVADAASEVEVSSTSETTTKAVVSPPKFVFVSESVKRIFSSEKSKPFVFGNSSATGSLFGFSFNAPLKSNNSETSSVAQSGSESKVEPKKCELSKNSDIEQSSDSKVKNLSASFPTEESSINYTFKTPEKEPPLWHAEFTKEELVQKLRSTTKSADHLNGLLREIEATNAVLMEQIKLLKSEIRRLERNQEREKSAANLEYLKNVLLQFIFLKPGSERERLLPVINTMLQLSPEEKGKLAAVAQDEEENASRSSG
UniProt P36776: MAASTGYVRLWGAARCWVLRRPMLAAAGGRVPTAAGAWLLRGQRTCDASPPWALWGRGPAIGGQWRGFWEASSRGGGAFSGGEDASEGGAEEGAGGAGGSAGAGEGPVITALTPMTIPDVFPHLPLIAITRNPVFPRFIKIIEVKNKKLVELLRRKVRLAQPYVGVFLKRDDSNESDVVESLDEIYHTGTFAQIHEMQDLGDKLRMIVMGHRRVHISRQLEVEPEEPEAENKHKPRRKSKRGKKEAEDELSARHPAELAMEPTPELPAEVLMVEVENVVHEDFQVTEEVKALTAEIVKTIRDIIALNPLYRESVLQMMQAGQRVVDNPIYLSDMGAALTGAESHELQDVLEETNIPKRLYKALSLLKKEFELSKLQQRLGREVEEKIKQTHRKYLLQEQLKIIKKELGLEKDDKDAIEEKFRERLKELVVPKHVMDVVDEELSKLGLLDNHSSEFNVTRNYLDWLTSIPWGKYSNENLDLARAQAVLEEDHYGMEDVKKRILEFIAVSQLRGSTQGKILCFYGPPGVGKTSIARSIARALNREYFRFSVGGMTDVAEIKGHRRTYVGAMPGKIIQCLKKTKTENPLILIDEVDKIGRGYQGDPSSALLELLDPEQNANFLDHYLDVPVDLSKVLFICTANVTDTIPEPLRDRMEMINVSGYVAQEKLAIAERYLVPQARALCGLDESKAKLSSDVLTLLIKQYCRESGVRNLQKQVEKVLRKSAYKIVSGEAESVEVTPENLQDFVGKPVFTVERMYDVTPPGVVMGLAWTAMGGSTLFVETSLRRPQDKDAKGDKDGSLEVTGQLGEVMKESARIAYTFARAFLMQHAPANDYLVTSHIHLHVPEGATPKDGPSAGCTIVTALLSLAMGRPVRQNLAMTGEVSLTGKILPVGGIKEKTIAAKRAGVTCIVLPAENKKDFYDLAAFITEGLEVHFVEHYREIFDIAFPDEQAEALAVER

The mark [1] stands for this setting: system: DAOY cell lysate, treatment time: 20 min, 4 °C.
Setting [2] is: system: intact DAOY cells, treatment time: 90 min, 37 °C.

Many values rest on one well or one pass, so single values are uncertain.

Regarding ABCB10 (UniProt Q9NRK6), the melting temperature shift reads like this: under setting [1], -0.0272 °C; under setting [2], -0.958 °C.

Take GSDMD (UniProt P57764): the melting temperature shift under setting [1] is -0.313 °C and the melting temperature shift under setting [2] was -1.68 °C.

Consider TNFAIP8 (UniProt O95379), for which the melting temperature shift reads like this: under setting [1], -0.774 °C; under setting [2], -0.419 °C.

Take EBNA1BP2 (UniProt Q99848): the melting temperature shift under setting [1] turned out to be 0.715 °C.

On to NUDT21 (UniProt O43809), for which the melting temperature shift reads like this: under setting [1], -0.476 °C; under setting [2], 0.249 °C.

As for IFNGR1 (UniProt P15260), under setting [2], the melting temperature shift was determined as 0.565 °C.

Take UniProt Q8TD47: the melting temperature shift under setting [2] is -0.64 °C.

Take SNX1 (UniProt Q13596): the melting temperature shift was -0.643 °C under setting [1] and -1.42 °C under setting [2].

Take MKL2 (UniProt Q9ULH7): the melting temperature shift under setting [1] is -4.33 °C and the melting temperature shift under setting [2] is -2.35 °C.

As for APEH (UniProt P13798), the melting temperature shift under setting [1] was -0.932 °C and the melting temperature shift under setting [2] was 0.419 °C.

On to STRADA (UniProt Q7RTN6), for which the melting temperature shift under setting [1] is -2.2 °C.

In the case of ISG20L2 (UniProt Q9H9L3), the melting temperature shift under setting [1] worked out at 0.975 °C.

Consider ALDH18A1 (UniProt P54886), for which the melting temperature shift runs as follows: under setting [1], 0.00953 °C; under setting [2], -0.632 °C.

For PMPCA (UniProt Q10713), the melting temperature shift is, setting by setting: under setting [1], 1.06 °C; under setting [2], -0.108 °C.

Take PRPF38A (UniProt Q8NAV1): the melting temperature shift reads like this: under setting [1], 0.253 °C; under setting [2], 0.24 °C.

Turning to LYPLA1 (UniProt O75608), the melting temperature shift is, setting by setting: under setting [1], -0.737 °C; under setting [2], -0.268 °C.

As for NUP205 (UniProt Q92621), the melting temperature shift is 0.289 °C under setting [1] and -0.923 °C under setting [2].

Regarding UniProt Q16773, the melting temperature shift runs as follows: under setting [1], -1.53 °C; under setting [2], 3.46 °C.

As to OSGEP (UniProt Q9NPF4), the melting temperature shift under setting [1] was found to be 0.166 °C.

As for A0AVT1, the melting temperature shift is, setting by setting: under setting [1], -0.572 °C; under setting [2], 0.473 °C.

With MINA (UniProt Q8IUF8), the melting temperature shift runs as follows: under setting [1], 0.906 °C; under setting [2], -0.383 °C.

Turning to UniProt Q9BT23, the melting temperature shift under setting [1] is -4.16 °C.

Turning to EML1 (UniProt O00423), the melting temperature shift was -0.383 °C under setting [1] and -0.667 °C under setting [2].

Regarding SMG7 (UniProt Q92540), the melting temperature shift under setting [1] amounted to 0.698 °C.

Consider RCOR1 (UniProt Q9UKL0), for which the melting temperature shift runs as follows: under setting [1], -0.424 °C; under setting [2], -0.196 °C.

In the case of TIFA (UniProt Q96CG3), the melting temperature shift under setting [1] was -0.21 °C.

RPP25L (UniProt Q8N5L8): the melting temperature shift reads like this: under setting [1], 0.475 °C; under setting [2], -0.28 °C.

In the case of TLN1 (UniProt Q9Y490), the melting temperature shift under setting [1] was -0.0896 °C and the melting temperature shift under setting [2] was -0.323 °C.

Regarding TOP1 (UniProt P11387), the melting temperature shift under setting [1] was determined as 0.158 °C and the melting temperature shift under setting [2] was -0.313 °C.

With UniProt P49795, the melting temperature shift under setting [1] is -1.12 °C.

On to UniProt P35226, for which the melting temperature shift runs as follows: under setting [1], -0.101 °C; under setting [2], 1.34 °C.

For the target PAK1 (UniProt Q13153), the melting temperature shift under setting [2] was -0.725 °C.

Turning to UniProt Q8TBY8, the melting temperature shift is -1.22 °C under setting [1] and 0.353 °C under setting [2].

Consider EIF1 (UniProt P41567), for which the melting temperature shift reads like this: under setting [1], -1.41 °C; under setting [2], -0.163 °C.

In the case of UniProt Q9NSY0, the melting temperature shift under setting [2] was 1.52 °C.

On to UniProt Q8TAV4, for which the melting temperature shift under setting [2] is 3.92 °C.

As for UniProt Q99666, the melting temperature shift under setting [1] was 1.33 °C.

For UniProt Q9BQP9, the melting temperature shift under setting [2] was -1.83 °C.

Consider LONP1 (UniProt P36776), for which the melting temperature shift was 0.754 °C under setting [1] and -1.17 °C under setting [2].
